PubChem BioAssay AID504791 | Drosophila RNAi Screening Center – 2011
Test: 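Genes whose knock-down strengthens or weakens small-RNA reporter silencing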 (primary screen). Cells: Drosophila S2-derived reporter cells. Knock-down reagent: long dsRNA against Drosophila genes, about 150-250 ng dsRNA per well (siRNA assay); about 80-120 ng (miRNA assay). Time to read-out: about 5 days (siRNA assay); about 4 days (miRNA assay). Challenge: copper sulfate induction of reporters: 25 µM (siRNA assay); 200 mM stated (miRNA assay), 1-2 days before reading. Measurement: 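Dual luciferase assay: Renilla to firefly signal ratio in each well, scaled to the mean ratio of its plate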. Direction: siRNA reporter hit score: higher = 3 marks a strong hit with raised ratio; -3 a strong hit with lowered ratio. Hit rule: 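a well was a first-pass pick when its plate-scaled ratio rose above 1.5 (siRNA assay) or 1.6 (miRNA assay), or dropped below 0.6; a gene counted only if two separate dsRNAs agreed on retest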.
In all, the deposit lists about 23,000 reagents; shown is an unselected part of those that have a named target and a result. Over the whole deposit, 199 (0.86%) got an active call. 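Plate-scaled ratios behind the calls are not deposited; printed light signals are raw; many rows marked increased or decreased are still called inactive.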 Unmarked entries are inactive. A plus sign joins genes that one reagent is predicted to hit.

gene knocked down,amplicon,siRNA reporter hit score,miRNA reporter change,"stable assay Renilla, run 1 (luminescence)","stable assay firefly, run 1 (luminescence)"
DIP-epsilon (Dpr-interacting protein epsilon),DRSC00932,,,4831,4.51e5
DIP-epsilon (Dpr-interacting protein epsilon),DRSC02313,,,9885,6.28e5
mbc (myoblast city),DRSC16995,,,4871,3.46e5
Dhod (Dihydroorotate dehydrogenase),DRSC16647,,,5731,3.43e5
IPIP (Inositol phosphatase interacting protein),DRSC02164,,,1.15e5,3.52e5
ss (spineless),DRSC17069,,,7023,3.88e5
CG9368,DRSC11067,,,8432,3.46e5
CG7655,DRSC16275,,,9313,3.72e5
CG34124,DRSC00849,,,5962,4.65e5
CG31867,DRSC03338,,,7052,4.03e5
trp (transient receptor potential),DRSC17088,,,7074,3.10e5
CG13121 (retired record),DRSC02217,,,7621,4.40e5
Nelf-A (Negative elongation factor A),DRSC15903,,,8444,3.95e5
Vps15 (Vacuolar protein sorting 15),DRSC16553,,,7003,4.47e5
Mur18B (Mucin related 18B),DRSC20063,,,6818,3.88e5
YME1L (YME1 like ATPase),DRSC04378,,,1.13e5,2.67e5
CG14693,DRSC14916,,,8072,4.81e5
CAHbeta (Carbonic anhydrase beta),DRSC14449,,,8579,4.53e5
CG13325,DRSC06362,,,8270,4.08e5
CG8908,DRSC07297,,,6643,2.71e5
"SerRS-m (Seryl-tRNA synthetase, mitochondrial)",DRSC14096,,,6132,3.44e5
CG9436,DRSC05005,,,14438,1.91e6
Hr78 (Hormone-receptor-like in 78),DRSC11866,,,9398,4.10e5
CG13384,DRSC02258,,,12559,5.12e5
RpS27A (Ribosomal protein S27A),DRSC03421,,,7923,3.86e5
dmrt93B (doublesex-Mab related 93B),DRSC15865,,,6656,3.65e5
Jheh1 (Juvenile hormone epoxide hydrolase 1),DRSC06529,,,9974,3.84e5
ND-B14.5A (NADH dehydrogenase (ubiquinone) B14.5 A subunit),DRSC18500,,,5143,3.39e5
Ipo9 (Importin 9),DRSC16813,,,6863,4.12e5
chrb (charybde),DRSC11335,,,4643,3.84e5
PolG1 (DNA polymerase gamma subunit 1),DRSC03621,,,7698,4.61e5
CG9410 + CG15908,DRSC04976,,,7779,4.20e5
CG9410 + CG15908,DRSC05001,,,5524,3.53e5
Vinc (Vinculin),DRSC18728,,,6910,3.97e5
Or2a (Odorant receptor 2a),DRSC18690,,,5636,3.91e5
scaf (scarface),DRSC04849,,,54232,1.20e6
CG30375,DRSC06834,,,5916,3.10e5
CG6271,DRSC16006,,,9253,3.52e5
Wdr24 (WD repeat domain 24),DRSC14151,,,7526,4.71e5
Vps8 (Vacuolar protein sorting 8),DRSC09705,,,5263,3.59e5
Nmda1 (N-methyl-D-aspartate receptor-associated protein),DRSC07479,,,7774,3.65e5
stops (slow termination of phototransduction),DRSC15095,,,5403,3.40e5
stops (slow termination of phototransduction),DRSC15096,,,5619,4.06e5
stops (slow termination of phototransduction),DRSC15097,,,6278,4.08e5
CG12426,DRSC14516,,,6570,4.14e5
ATP8A (ATPase 8A),DRSC05421,,,5659,3.15e5
ATP8A (ATPase 8A),DRSC06643,,,7859,4.87e5
ATP8A (ATPase 8A),DRSC06644,,,6095,3.46e5
CG15356,DRSC00386,,,8975,4.89e5
PGRP-SA (Peptidoglycan recognition protein SA),DRSC19420,,,5343,4.39e5
Coa8 (Cytochrome c oxidase assembly factor 8),DRSC17959,,,5752,3.08e5
Hs6st (Heparan sulfate 6-O-sulfotransferase),DRSC14348,,,7091,5.06e5
Hs6st (Heparan sulfate 6-O-sulfotransferase),DRSC15182,,,7335,4.02e5
Hs6st (Heparan sulfate 6-O-sulfotransferase),DRSC15581,,,5848,4.73e5
Hs6st (Heparan sulfate 6-O-sulfotransferase),DRSC21732,,,9459,4.06e5
Agxt (Alanine-glyoxylate aminotransferase),DRSC18718,,,7602,4.01e5
CG6428,DRSC18402,,,5399,3.30e5
Gs2 (Glutamine synthetase 2),DRSC20250,,,5368,4.68e5
CG34051,DRSC01739,,,5246,5.30e5
ND-23 (NADH dehydrogenase (ubiquinone) 23 kDa subunit),DRSC15526,,,7852,4.04e5
CG9004,DRSC08617,,,5966,4.60e5
Cp18 (Chorion protein 18),DRSC11120,,,5494,3.55e5
CG1161,DRSC12180,3,,5542,3.03e5
CG17739,DRSC06689,,,9079,5.20e5
CG4611,DRSC10434,,,6554,3.55e5
CG3062,DRSC18572,,,6212,3.90e5
CheB53b (Chemosensory protein B 53b),DRSC05613,,,5984,4.27e5
ft (fat),DRSC00819,,,10594,2.79e5
l(2)37Cd (lethal (2) 37Cd),DRSC02069,,,14951,1.66e6
Cyp4d20 (Cytochrome P450 4d20),DRSC08654,,,7963,4.32e5
Cep164 (centrosomal protein 164),DRSC20163,,reporter ratio raised past the hit cutoff,5851,3.20e5
Osi21 (Osiris 21),DRSC02408,,,7385,4.28e5
Ets98B (Ets at 98B),DRSC16666,,,5243,4.17e5
wuho,DRSC18101,,,5804,3.62e5
DIP-iota (Dpr-interacting protein iota),DRSC02140,,,7239,4.44e5
Fbl6 (F-box and leucine-rich repeat protein 6),DRSC06335,,,7191,5.48e5
CG8854,DRSC07288,,,8211,3.25e5
dre4,DRSC08714,,,5860,4.57e5
Prosbeta5R2 (Proteasome beta5 subunit-related 2),DRSC01617,,,5539,3.28e5
Nab2 (Nuclear polyadenosine RNA-binding 2),DRSC14158,,,10461,5.49e5
CG32100,DRSC09725,,,6380,3.36e5
CG32100,DRSC10331,,,6256,3.20e5
CG8128,DRSC20084,,,8605,6.76e5
